Experimental data from PubChem BioAssay AID1671190 (National Center for Advancing Translational Sciences (NCATS), 2021).
The whole screen tested about 580,000 compounds, of which about 6,100 (1.1%) were called active. Inconclusive results, whose numbers are uncertain, are shown with a selection of clear calls. Calls follow the shape of the dose curve; as a rule, active = well fitted inhibition curve with a large enough effect; inconclusive = small, poorly fitted or top-dose-only effect, or another doubt; inactive = no such curve, though single readings can be large or run the other way. Where the call is inconclusive, the potency comes from a doubtful curve fit.

Sequences of proteins named here, by UniProt entry; tags and fusion partners are left off. A change or cut given only in a name is not applied to a line headed by its entry.
UniProt P18054: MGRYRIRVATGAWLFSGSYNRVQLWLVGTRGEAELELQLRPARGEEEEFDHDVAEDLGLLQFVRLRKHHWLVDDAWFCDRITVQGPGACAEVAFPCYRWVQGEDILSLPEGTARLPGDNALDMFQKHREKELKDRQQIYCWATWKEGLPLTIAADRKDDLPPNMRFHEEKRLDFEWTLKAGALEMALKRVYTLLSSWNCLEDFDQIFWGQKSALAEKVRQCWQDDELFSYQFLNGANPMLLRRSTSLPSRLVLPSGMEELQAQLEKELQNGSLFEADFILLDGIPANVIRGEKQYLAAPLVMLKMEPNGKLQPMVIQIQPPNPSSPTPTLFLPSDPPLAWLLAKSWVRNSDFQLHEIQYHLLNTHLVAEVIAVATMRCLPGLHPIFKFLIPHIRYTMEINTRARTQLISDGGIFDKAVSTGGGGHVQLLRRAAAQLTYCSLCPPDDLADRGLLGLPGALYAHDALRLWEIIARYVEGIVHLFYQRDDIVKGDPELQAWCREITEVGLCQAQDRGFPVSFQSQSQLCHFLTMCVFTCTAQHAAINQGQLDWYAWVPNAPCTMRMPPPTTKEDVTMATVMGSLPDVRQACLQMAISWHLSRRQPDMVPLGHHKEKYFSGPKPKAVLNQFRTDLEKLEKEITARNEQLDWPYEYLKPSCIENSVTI

biological target: Polyunsaturated fatty acid lipoxygenase ALOX12 (Homo sapiens) (UniProt P18054); assay: Primary qHTS assay for inhibitors of human arachidonate 12S-lipoxygenase (ALOX12): Round 2; details: purified 12hLO, xylenol orange hydroperoxide absorbance; activity change, negative = inhibition: at 108 µM (top of the series) unless noted
Procedure, shortened: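 Purified human 12hLO (150 nM final) in 25 mM Hepes, 0.01% Triton X-100, pH 7.0 was preincubated 15 min at room temperature with compound. Then 40 uM arachidonic acid was added, 30 min. Hydroperoxide was read by Fe-XO absorbance ratio 573/405 nm.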
% is scaled to controls: 0 for no effect and ±100 for the full control effect; potency is read from the fitted curve at half-maximal effect.

Row | SMILES | Potency | activity change, negative = inhibition
1 | Cc1cccc(OCC(O)CN2CCN(c3ccccn3)CC2)c1C (stereo unspecified) | inconclusive: 35.5 µM [inhibitor, partial curve, poor fit] | 
2 | COc1ccc(S(=O)(=O)N2CCCCC2)cc1NC(=S)Nc1ccccc1 | inactive | 
3 | CCC1CN(CC(=O)Nc2ccc(OC)c(Cl)c2)c2ccccc2S1 (stereo unspecified) | inconclusive: 50.1 µM [inhibitor, partial curve, poor fit] | 
4 | CC(C)(C)C1CCc2nc(SCC(N)=O)c(C#N)c(C(F)(F)F)c2C1 (stereo unspecified) | inconclusive: 39.8 µM [inhibitor, partial curve, poor fit] | 
5 | Cc1ccc(O)c(N/C=C/C(=O)C(C)(C)C)c1 | inconclusive: 50.1 µM [inhibitor, partial curve, poor fit] | 
6 | CCOC(=O)N1CCC2(CC1)C(C#N)=C(N)Oc1n[nH]c(CSc3ccc(C)cc3)c12 | inconclusive: 31.6 µM [inhibitor, partial curve, poor fit] | 
7 | O=C(COc1ccc(C(=O)c2ccccc2)cc1)Nc1cccnc1 | inactive | 
8 | CCOC(=O)C(=O)N(C)c1c(CC)nc2c(OCc3ccccc3OC)cccn12 | inconclusive: 39.8 µM [inhibitor, partial curve, poor fit] | 
9 | CN(C)C(=O)NC(NC(=S)Nc1ccccc1)C(Cl)(Cl)Cl (stereo unspecified) | inconclusive: 70.8 µM [inhibitor, partial curve, poor fit] | 
10 | COc1ccc(Cl)cc1NC(=O)Cn1cc(S(=O)(=O)Cc2cccc(Cl)c2)c2ccccc21 | inconclusive: 126 µM [inhibitor, partial curve, poor fit] | 
11 | O=C(C1CCN(C(=O)N2CC3CC(C2)[C@H]2CCCC(=O)N2C3)CC1)N1CCOCC1 (stereo partly specified) | inactive | 
12 | N#C/C(=C\c1ccc(-c2ccc(C(=O)O)cc2)o1)c1nc2ccccc2[nH]1 | inconclusive: 31.6 µM [inhibitor, partial curve, poor fit] | 
13 | CCOC(=O)CSC1=Nc2ccccc2C2=NC(CC(=O)NCc3ccccc3)C(=O)N12 (stereo unspecified) | active: 10 µM | 
14 | Nc1ccc(C(=O)Nc2ccc3cc(S(=O)(=O)O)ccc3c2)cc1 | inactive | 
15 | CCOc1ccc(CNCc2cccs2)cc1OC |  | inconclusive: -32.7% [inhibitor]
16 | CC(c1nc2ccccc2[nH]1)n1c(=O)c(-c2cccs2)nc2ccccc21 (stereo unspecified) | inconclusive: 0.0794 µM [inhibitor, full curve, poor fit] | 
17 | CCCCn1c(N)c(N(CC(C)C)C(=O)C2CCN(S(=O)(=O)c3ccc(C)cc3)CC2)c(=O)[nH]c1=O | inconclusive: 4.47 µM [inhibitor, full curve, poor fit] | 
18 | Cc1cccc(OCCOc2ccc3ccc(=O)oc3c2)c1 | inconclusive: 10 µM [inhibitor, full curve, poor fit] | 
19 | Cc1ccc(Cn2c(C)c(CNCc3ccc(OC(C)C)cc3)c(C(=O)O)c2C)cc1 | inconclusive: 89.1 µM [inhibitor, partial curve, poor fit] | 
20 | CC(=O)Nc1nc2cc([N+](=O)[O-])ccc2s1 | inconclusive: 100 µM [inhibitor, partial curve, poor fit] | 
21 | S=C(NCC1CCCO1)Nc1cccc2ccccc12 (stereo unspecified) | inconclusive: 63.1 µM [inhibitor, partial curve, poor fit] | 

Another view of some results above:

| Row | SMILES | Potency | activity change, negative = inhibition |
| --- | --- | --- | --- |
| 6 | CCOC(=O)N1CCC2(CC1)C(C#N)=C(N)Oc1n[nH]c(CSc3ccc(C)cc3)c12 | inconclusive: 31.6 µM [inhibitor, partial curve, poor fit] |  |
| 7 | O=C(COc1ccc(C(=O)c2ccccc2)cc1)Nc1cccnc1 | inactive |  |
| 8 | CCOC(=O)C(=O)N(C)c1c(CC)nc2c(OCc3ccccc3OC)cccn12 | inconclusive: 39.8 µM [inhibitor, partial curve, poor fit] |  |

The list goes on:

Row | SMILES | Potency | activity change, negative = inhibition
22 | Cc1cc(C)n(-c2ccc(NC(=O)C3CCN(Cc4cnc(C)s4)CC3)cc2)n1 | inconclusive: 39.8 µM [inhibitor, partial curve, poor fit] | 
23 | CN(CC(=O)Nc1cccc(S(=O)(=O)N2CCCC2)c1)Cc1ccccc1 | inconclusive: 50.1 µM [inhibitor, partial curve, poor fit] | 
24 | Clc1ccc(Cc2nn3c(Cn4nnc5ccccc54)nnc3s2)cc1 | inconclusive: 50.1 µM [inhibitor, partial curve, poor fit] | 
25 | COc1ccc(SC[C@H](Cc2ccccc2)N2CC[C@@H](C)CCC2=O)cc1 | inconclusive: 4.47 µM [inhibitor, full curve, poor fit] | 
26 | Cc1ccc(-c2cnoc2NC(=O)CSc2nc(-c3cccc(Cl)c3)cc(=O)[nH]2)cc1 | inconclusive: 12.6 µM [inhibitor, full curve, poor fit] | 
27 | CCN(CC)CCCn1c2c(c(SCC(=O)Nc3nccs3)nc1=O)CCC2 | inconclusive: 44.7 µM [inhibitor, partial curve, poor fit] | 
28 | COC(=O)c1cc2c(c3c4cc(C)ccc4n(S(=O)(=O)c4cccc(C)c4)c13)C(=O)N(C)C2 | inconclusive: 56.2 µM [inhibitor, partial curve, poor fit] | 
29 | CN1CCc2c(sc3c2C(=O)NC(c2ccc(OC(=O)c4ccc(Cl)cc4)cc2)N3)C1 (stereo unspecified) | inconclusive: 14.1 µM [inhibitor, full curve, poor fit] | 
30 | O=C(O)Cn1nnnc1-c1ccc(F)cc1 | inconclusive: 7.94 µM [inhibitor, full curve, poor fit] | 
31 | O=C(O)CN1C(=O)/C(=C\c2ccccc2OCc2ccc(F)cc2)SC1=S | inconclusive: 44.7 µM [inhibitor, partial curve, poor fit] | 
32 | CC(=O)C1=C(O)C(=O)N(Cc2ccccc2)C1c1ccc(N(C)C)cc1 (stereo unspecified) | inconclusive: 15.8 µM [inhibitor, full curve] | 
33 | Cc1cc(C)nc(NS(=O)(=O)c2ccc(Nc3nc(-c4ccc(C)c(C)c4)cs3)cc2)n1 | inconclusive: 14.1 µM [inhibitor, partial curve, poor fit] | 
34 | CC(C)c1nc(SCC(=O)N2CCCC2)c2ccccc2n1 | inconclusive: 50.1 µM [inhibitor, partial curve, poor fit] | 
35 | COc1ccc(-c2nc(NC3=NCCCCC3)sc2C)cc1 | inactive | 
36 | CC1=C(C(=O)N2CCOCC2)CC(CC(=O)NCCCCc2ccccc2)C(=O)N1Cc1ccc(F)cc1 (stereo unspecified) | inactive | 
37 | Cc1ccc(CSc2nc3c(c(=O)[nH]2)C(c2cccc(F)c2F)CC(=O)N3)cc1 (stereo unspecified) | inconclusive: 126 µM [inhibitor, single point] | 
38 | O=C1C(Cl)=C(N2CCCCCC2)C(=O)N1c1ccccc1 | inconclusive: 50.1 µM [inhibitor, partial curve, poor fit] | 
39 | CC1CCCN(C(=O)C2CCN(Cc3ccc(C(F)(F)F)cc3)CC2)C1 (stereo unspecified) | inconclusive: 0.447 µM [inhibitor, full curve, poor fit] | 
40 | CCOC(=O)c1cc(-c2ccc(OC)cc2)nn1Cc1ccccc1 | inconclusive: 141 µM [inhibitor, partial curve, poor fit] | 
41 | CC(C)c1ccccc1NC(=O)COc1ncnc2ccc(Br)cc12 | inconclusive: 3.55 µM [inhibitor, full curve, poor fit] | 
42 | NC(=S)NN=Cc1nccc2c(C(F)(F)C(F)(F)C(F)(F)F)cccc12 | inconclusive: 79.4 µM [inhibitor, partial curve, poor fit] | 

Row | SMILES | Potency | activity change, negative = inhibition
43 | COc1ccc(CC(=O)N2[C@@H]3CC[C@H]2CC(NC(=O)c2cnc(C)cn2)C3)cc1OC (stereo partly specified) | inactive | 
44 | O=C(NNc1c(Cl)cncc1Cl)c1cccs1 | inconclusive: 112 µM [inhibitor, single point] | 
45 | C#CCOCCOCCOCCNc1nc(N2CCN(C(=O)Cn3cc(CCCCN)nn3)CC2)nc(N2CCN(C(=O)[C@H](Cc3ccc(O)cc3)n3cc(CCO)nn3)CC2)n1 | inconclusive: 89.1 µM [inhibitor, single point] | 
46 | CC(=O)Nc1cnc(/C=C\CCCO)cn1 | inconclusive: 5.01 µM [inhibitor, full curve, poor fit] | 
47 | Cc1c(Cl)cccc1NC(=O)C[C@H]1NC(=O)c2ccccc2NC1=O | inactive | 
48 | COc1cc(/C=C/c2ccc3c([N+](=O)[O-])cccc3n2)ccc1OCC(=O)O | inconclusive: 112 µM [inhibitor, single point] | 
49 | O=c1n2c(c(O)n1C1CCCCC1)C(c1ccccc1)=Nc1ccccc1C2 | inactive | 
50 | O=C(/C=C/c1ccccc1)Nc1cc(NC(=O)/C=C/c2ccccc2)cc(C(=O)O)c1 | inconclusive: 141 µM [inhibitor, single point] | 
51 | Cc1cc(C(=O)N2CCCCC2)c2c(C3CCNC3)noc2n1 (stereo unspecified) | inconclusive: 12.6 µM [inhibitor, full curve, poor fit] | 
52 | CCOc1ccc(S(=O)(=O)N2CCC(C(=O)N3CCOCC3)CC2)cc1C | inconclusive: 2.51 µM [inhibitor, full curve, poor fit] | 
53 | Cc1cccc(CC2CC(=O)N(c3nc4ccccc4s3)C2=O)c1 (stereo unspecified) | inactive | 
54 | CCn1c(-c2ccccc2)c(C(=O)O)c2ccccc21 | inconclusive: 50.1 µM [inhibitor, single point] | 
55 | COc1cc2ncc3c(-c4ccccc4)nn(-c4ccc(C)cc4)c3c2cc1OC | inconclusive: 56.2 µM [inhibitor, partial curve, poor fit] | 
56 | Cn1nnnc1SCCNCc1ccccc1Cl | inconclusive: 10 µM [inhibitor, full curve, poor fit] | 
57 | O=C(CCC1CCCC1)N1CCC(c2noc(COc3ccc(F)cc3)n2)C1 (stereo unspecified) | inactive | 
58 | Cc1cc(O)ccc1C1(c2ccc(O)cc2C)OC(=O)c2ccccc21 | inconclusive: 50.1 µM [inhibitor, single point] | 
59 | O=C(NC1CCCC1)C(c1ccncc1)N(C(=O)c1ccco1)c1ccc(F)c(Cl)c1 (stereo unspecified) | inconclusive: 89.1 µM [inhibitor, partial curve, poor fit] | 
60 | O=C(c1ccc(F)cc1)N(Cc1cccs1)c1ccc(F)cc1 | inactive | 
61 | CC(NC(=O)c1n[nH]c(=O)c2ccccc12)c1ccc(F)cc1 (stereo unspecified) | inactive | 
